Assay results: patent publication US20140113934A1, “HETEROCYCLIC COMPOUNDS FOR TREATING HELMINTH INFECTIONS” (E I DU PONT DE NEMOURS AND COMPANY, priority 2011, published 2014)
Some of these results come from one statement about several compounds together. For at least one compound, name, drawing or mass did not settle the structure.

Tested on: Haemonchus contortus
Assay: Test A: control of barber pole worm, eggs in culture media, mortality after 120 hours (L3 stage)
Format: cell-based
Conditions: 2.0 ppm final test compound concentration; Haemonchus contortus eggs in Earle's Balanced Salt Solution; evaluated 120 hours later at L3 stage
Description: For evaluating control of the barber pole worm (Haemonchus contortus), a test compound was solubilized in culture media (Earle's Balanced Salt Solution) containing Haemonchus contortus eggs to obtain a final test compound concentration of 2.0 ppm. The test unit was evaluated for mortality 120 hours later after which the eggs had hatched and had advanced to the L3 stage.

Molecule | mortality [%]
4-(2-chloro-4-cyanophenoxy)-N-(quinolinylmethyl)benzenesulfonamide [Compound 15] | 100
O=S(=O)(NCc1ccnc2ccccc12)c1ccc(C(O)c2ccccc2)cc1 (racemic) [Compound 77] | 100
O=[N+]([O-])c1cccc(Cl)c1Oc1ccc(S(=O)(=O)NCc2ccnc3ccccc23)cc1 [Compound 1] | 100
O=C(c1ccccc1)c1ccc(S(=O)(=O)NCc2ccnc3ccccc23)cc1 [Compound 4] | 100
O=S(=O)(NCc1ccnc2ccccc12)c1ccc(OCc2ccccc2)cc1 [Compound 6] | 100
O=C(Nc1ccc(Cl)cc1Cl)c1ccc(S(=O)(=O)NCc2ccnc3ccccc23)cc1 [Compound 8] | 100
O=S(=O)(NCc1ccnc2ccccc12)c1ccc(Sc2ccc(Cl)cc2Cl)cc1 [Compound 10] | 100
O=S(=O)(NCc1ccnc2ccccc12)c1ccc(S(=O)(=O)c2ccc(Cl)cc2)cc1 [Compound 11] | 100
O=C(Nc1ccccc1)c1ccc(S(=O)(=O)NCc2ccnc3ccccc23)cc1 [Compound 12] | 100
N#Cc1ccc(Oc2ccc(S(=O)(=O)NCc3ccnc4ccccc34)cc2)cc1Cl [Compound 13] | 100
COc1cc(C#N)ccc1Oc1ccc(S(=O)(=O)NCc2ccnc3ccccc23)cc1 [Compound 14] | 100
COC(=O)c1ccc(Oc2ccc(S(=O)(=O)NCc3ccnc4ccccc34)cc2)cc1 [Compound 17] | 100
N#Cc1ccccc1Oc1ccc(S(=O)(=O)NCc2ccnc3ccccc23)cc1 [Compound 18] | 100
O=S(=O)(NCc1ccnc2ccccc12)c1ccc(COc2ccccc2)cc1 [Compound 19] | 100
O=S(=O)(NCc1ccnc2ccccc12)c1ccc(C#Cc2ccc(Cl)cc2)cc1 [Compound 20] | 100
O=S(=O)(NCc1ccnc2ccccc12)c1ccc(C#Cc2ccccc2Cl)cc1 [Compound 21] | 100
O=S(=O)(NCc1ccnc2ccccc12)c1ccc(CCc2ccccc2Cl)cc1 [Compound 22] | 100
O=S(=O)(NCc1ccnc2ccccc12)c1ccc(CCc2ccc(Cl)cc2)cc1 [Compound 24] | 100
COC(=O)c1cccc(Oc2ccc(S(=O)(=O)NCc3ccnc4ccccc34)cc2)c1 [Compound 25] | 100
COC(=O)c1cc(Cl)ccc1Oc1ccc(S(=O)(=O)NCc2ccnc3ccccc23)cc1 [Compound 26] | 100
O=S(=O)(NCc1ccnc2ccccc12)c1ccc(C#Cc2ccc(Cl)cc2Cl)cc1 [Compound 32] | 100

Molecule | mortality [%]
N#Cc1cc(Cl)ccc1Oc1ccc(S(=O)(=O)NCc2ccnc3ccccc23)cc1 [Compound 35] | 100
O=S(=O)(NCc1ccnc2ccccc12)c1ccc(CCc2ccc(Cl)cc2Cl)cc1 [Compound 39] | 100
O=S(=O)(NCc1ccnc2ccccc12)c1ccc(C=Cc2ccccc2)cc1 [Compound 47] | 100
O=S(=O)(NCc1ccnc2ccccc12)c1ccc(Cc2ccc(C(F)(F)F)cc2)cc1 [Compound 52] | 100
O=C(Nc1ccc(S(=O)(=O)NCc2ccnc3ccccc23)cc1)c1ccc(Cl)cc1Cl [Compound 55] | 100
O=C(Nc1ccc(S(=O)(=O)NCc2ccnc3ccccc23)cc1)c1ccc(Cl)cc1 [Compound 58] | 100
O=S(=O)(NCc1ccnc2ccccc12)c1ccc(Cc2cccc(C(F)(F)F)c2)cc1 [Compound 65] | 100
O=S(=O)(NCc1ccnc2ccccc12)c1ccc(Nc2ccc(Cl)cc2)cc1 [Compound 71] | 100
O=S(=O)(NCc1ccnc2ccccc12)c1ccc(C#Cc2ccccc2F)cc1 [Compound 78] | 100
O=S(=O)(NCc1ccnc2ccccc12)c1ccc(C#Cc2ccc(F)cc2)cc1 [Compound 79] | 100
O=S(=O)(NCc1ccnc2ccccc12)c1ccc(C#Cc2cccc(F)c2)cc1 [Compound 84] | 100
O=S(=O)(NCc1ccnc2ccccc12)c1ccc(C#Cc2ccc(F)cc2F)cc1 [Compound 85] | 100
O=S(=O)(NCc1ccnc2ccccc12)c1ccc(C#Cc2cc(F)cc(Cl)c2)cc1 [Compound 87] | 100
O=S(=O)(NCc1ccnc2ccccc12)c1ccc(C#Cc2ccccc2C(F)(F)F)cc1 [Compound 89] | 100
O=S(=O)(NCc1ccnc2ccccc12)c1ccc(Nc2ccc(F)cc2)cc1 [Compound 90] | 100
O=S(=O)(NCc1ccnc2ccccc12)c1ccc(C#Cc2cc(Cl)ccc2F)cc1 [Compound 94] | 100
O=S(=O)(NCc1ccnc2ccccc12)c1ccc(C#Cc2ccc(Cl)cc2F)cc1 [Compound 95] | 100
O=S(=O)(NCc1ccnc2ccccc12)c1ccc(C#Cc2cc(F)ccc2Cl)cc1 [Compound 96] | 100
O=S(=O)(NCc1ccnc2ccccc12)c1ccc(C#Cc2ccc(C(F)(F)F)cc2)cc1 [Compound 97] | 100
O=S(=O)(NCc1ccnc2ccccc12)c1ccc(C#Cc2cc(F)cc(C(F)(F)F)c2)cc1 [Compound 98] | 100
